Experimental data taken from PubChem BioAssay AID504444 (National Center for Advancing Translational Sciences (NCATS), 2011).
Among all 360,000 compounds or so, about 7,500 (2.1%) were called active. This list was built around the results that the source calls inconclusive (neither active nor inactive); the mix of calls is not that of the screen. Calls follow the shape of the dose curve; as a rule, active = well fitted inhibition curve with a large enough effect; inconclusive = small, poorly fitted or top-dose-only effect, or effect the other way; inactive = flat fitted curve, though single readings scatter. A potency beside an inconclusive call is a rough fit, not a confirmed value.
Potency is read from the fitted curve at half-maximal effect.

Experiment: Nrf2 qHTS screen for inhibitors; also: nearly all actives have a fitted effect of over 60% in size
Settings: A549 ARE-Fluc reporter, luciferase luminescence, 18-24 h; series mostly up to 46 µM
Method in brief: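 Nrf2 function is reported as luminescence of an ARE-controlled luciferase in A549 cells. Compounds were tested at several concentrations, and a CellTiter-Fluor read on the same wells flagged cytotoxicity.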
With `COc1cc(NC(=O)CC(C)S(=O)(=O)c2ccc3c(c2)CCN3C(C)=O)cc(OC)c1OC` (stereo not given) the Potency was “inactive”. For `CCc1ccc(CNC(=O)CSc2c3c(nc4ccc(Cl)cc24)CCCC3)cc1`, the Potency was “inactive”. In the case of `O=C1CCCC2=C1C1(O)C(=O)c3ccccc3C1(O)O2` (stereo not given), the Potency was inconclusive: 4.61 µM [falling, partial curve, poor fit]. For `O=C(NCCn1cc(SCc2ccccc2F)c2ccccc21)c1cccs1`, the Potency was inconclusive: 29.1 µM [falling, single point]. In the case of `N#Cc1nc(Nc2cccc(F)c2)nc(NC2CCCC2)n1`, the Potency was inconclusive: 29.1 µM [falling, single point]. In the case of `COc1ccc(CC(=O)Nc2ccc3c(C)cc(=O)oc3c2)cc1OC`, the Potency was inconclusive: 23.1 µM [falling, partial curve, poor fit]. In the case of `Cc1ccc(-c2nnc(Nc3ccc4c(c3)OCO4)c3ccccc23)cc1S(=O)(=O)NC(C)C`, the Potency was inconclusive: 29.1 µM [falling, single point]. In the case of `CSc1nc(Nc2ccc(C)cc2)c(C#N)c(-c2ccccc2)n1`, the Potency was “inactive”. With `CCn1c(C)cs/c1=N\S(=O)(=O)c1ccccc1` the Potency was “inactive”. With `CCCn1nc(C(=O)Nc2nnc(C3CC3)s2)c2ccccc2c1=O` the Potency was inconclusive: 25.9 µM [falling, partial curve, poor fit]. In the case of `O=C(CSc1nc2ccccc2o1)Nc1nc(-c2ccccc2)c(-c2ccccc2)s1`, the Potency was inconclusive: 29.1 µM [falling, single point]. For `COc1cccc(/C=N/NC(=O)CN(C)S(=O)(=O)c2ccccc2)c1OC`, the Potency was inconclusive: 9.2 µM [activator, single point]. For `O=C(/C=C\c1ccc(-c2ccccc2)o1)c1ccccc1`, the Potency was inconclusive: 5.8 µM [activator, partial curve]. For `O=C(CCSc1nc(-c2ccco2)cc(C(F)(F)F)n1)N1CCCc2ccccc21`, the Potency was inconclusive: 29.1 µM [falling, single point]. For `Cc1ccc(OCC(=O)Nc2ccncc2)cc1`, the Potency was inconclusive: 16.4 µM [falling, single point]. For `O=C(Cn1cnc2c(nnn2Cc2ccccc2)c1=O)Nc1ccc2c(c1)OCCO2`, the Potency was “inactive”. For `CCOC(=O)C1=C(C)N(C)C(=S)NC1c1c(OCC)ccc2ccccc12` (stereo not given), the Potency was “inactive”. For `O=C(c1ccccc1-c1ccccc1)N1CCN(c2ccccn2)CC1`, the Potency was inconclusive: 29.1 µM [activator, single point]. For `Cc1cccn2c(=O)c3cc(C(=O)NCc4cccnc4)c(=N)n(CC4CCCO4)c3nc12` (stereo not given), the Potency was inconclusive: 7.31 µM [activator, partial curve, poor fit]. In the case of `Cc1ccc(C(=O)OC(C)C(=O)Nc2ccc3c(c2)OCO3)c(O)c1` (stereo not given), the Potency was “inactive”. For `CCc1cccc(NC(=O)Cn2cc(C=O)c3ccccc32)c1`, the Potency was “inactive”. With `CCOC(=O)c1c(C)[nH]c(C(=O)COC(=O)C2CC(=O)N(Cc3ccccc3)C2)c1C` (stereo not given) the Potency was inconclusive: 32.6 µM [activator, single point]. In the case of `Cc1ccccc1NS(=O)(=O)c1cc(C(=O)Nc2ccccc2-c2ccccc2)ccc1Cl`, the Potency was inconclusive: 20.6 µM [falling, single point]. With `N/C(=N\OC(=O)c1ccco1)c1ccccn1` the Potency was inconclusive: 14.6 µM [activator, partial curve, poor fit]. For `Cc1ccc(N2C(=O)C(CN3CCCCC3)C2c2ccccc2)cc1` (stereo not given), the Potency was “inactive”. With `CCN(CC)c1ccc(/C=N/NC(=O)c2cccc(S(=O)(=O)Nc3ccccc3OC)c2)c(O)c1` the Potency was active: 23.1 µM. In the case of `c1ccc(C2CCCN(Cc3nc(CC4CC4)no3)CC2)cc1` (stereo not given), the Potency was inconclusive: 20.6 µM [activator, single point]. With `Cc1cc(COc2ccccc2)oc1C(=O)O` the Potency was inconclusive: 25.9 µM [activator, single point]. In the case of `O=C(Nc1ccc(CN2CCOCC2)cc1)c1cc(Cl)ccc1Cl`, the Potency was inconclusive: 0.0461 µM [falling, full curve, poor fit]. For `CCCOc1ccc(/C=C/c2c([N+](=O)[O-])c(=O)n(C)c(=O)n2C)cc1`, the Potency was inconclusive: 18.4 µM [falling, single point]. For `COc1cc(Cl)c(NC(=O)c2cc(CN3CCCC3)on2)c(OC)c1`, the Potency was “inactive”. In the case of `Cc1ccn(CCC(=O)Nc2ccc3c(c2)OCO3)n1`, the Potency was inconclusive: 18.4 µM [activator, single point]. In the case of `CN(C)S(=O)(=O)c1ccc(C(=O)OCC(=O)c2csc(N3CCCCC3)n2)cc1`, the Potency was inconclusive: 29.1 µM [activator, single point]. For `COc1ccc(Cc2nnc(NC(=O)c3ccccc3F)s2)cc1OC`, the Potency was inconclusive: 18.4 µM [falling, single point]. For `Cc1nc(N2CCN(C)CC2)c2sc(=S)n(-c3ccccc3)c2n1`, the Potency was “inactive”. In the case of `O=c1c2ccccc2nc(-c2ccc(Br)cc2)n1Cc1ccccc1`, the Potency was inconclusive: 29.1 µM [falling, single point]. For `O=C1C=C(c2ccc(C(=O)O)cc2)C[C@@H](c2ccc(F)cc2)C1`, the Potency was “inactive”. With `Cn1ccs/c1=N\C(=O)Nc1ccccc1` the Potency was inconclusive: 2.91 µM [activator, partial curve, poor fit]. For `Cc1cc(/C=C(\C#N)C(=O)Nc2ccccc2)c(C)n1-c1ccc2c(c1)OCO2`, the Potency was inconclusive: 9.2 µM [falling, partial curve, poor fit]. With `CCN1C(=O)/C(=C/c2cnn(CC)c2C)SC1=S` the Potency was “inactive”. For `O=c1c(=O)n(-c2ccccc2)ccn1Cc1cccc(C(F)(F)F)c1`, the Potency was “inactive”. In the case of `O=C(NCc1ccc(F)cc1)c1ccc(CS(=O)Cc2ccc(Cl)cc2)o1` (stereo not given), the Potency was “inactive”. With `COc1ccccc1N1CCN(C(=O)CCc2ccc(S(=O)(=O)NCC(C)C)cc2)CC1` the Potency was inconclusive: 16.4 µM [falling, single point]. In the case of `N#CCSc1nc2ccccc2c(=O)n1CCC(=O)NC1CCCCC1`, the Potency was inconclusive: 0.517 µM [falling, partial curve, poor fit]. With `Cc1ccc(N(C(=O)c2snc(C(N)=O)c2N)C(C(=O)NCC2CCCO2)c2c[nH]c3ccccc23)cc1` (stereo not given) the Potency was inconclusive: 20.6 µM [falling, single point]. For `O=Cc1c(NCc2ccccc2Cl)c2ccccc2[nH]c1=O`, the Potency was inconclusive: 32.6 µM [falling, single point]. In the case of `COc1ccc(CCNC2CC(=O)N(CCc3ccccc3)C2=O)cc1` (stereo not given), the Potency was “inactive”. With `CN(CC(=O)Nc1c(Cl)cccc1Cl)C(=O)Cc1ccsc1` the Potency was “inactive”. For `CC(C)(C)c1ccc(C2=CC(c3ccccc3F)n3ncnc3N2)cc1` (stereo not given), the Potency was inconclusive: 23.1 µM [activator, single point]. In the case of `COc1ccc(C2CC(=O)c3cnc4c(-c5ccccc5)c(C)nn4c3C2)cc1OC` (stereo not given), the Potency was inconclusive: 5.8 µM [falling, single point]. In the case of `O=C(OCC#CCSc1nnc(-c2cccc3ccccc23)o1)C1CCC1`, the Potency was “inactive”. In the case of `CCn1c(SCC(=O)N2CCN(c3ccccc3)CC2)nc2c(c1=O)SC(C)C2` (stereo not given), the Potency was inconclusive: 29.1 µM [falling, single point]. In the case of `COc1ccc(-c2csc3nc(C)nc(N4CCC(C)CC4)c23)cc1OC`, the Potency was inconclusive: 14.6 µM [falling, partial curve]. With `Cc1ccc(C2Oc3ccccc3C3=C2C(c2cccs2)n2ncnc2N3)cc1` (stereo not given) the Potency was inconclusive: 23.1 µM [falling, partial curve, poor fit]. In the case of `COc1ccccc1NS(=O)(=O)c1ccc2nc(CCl)[nH]c2c1`, the Potency was “inactive”. For `CN1c2ccccc2-c2nc3ccccc3n2C1c1cccs1` (stereo not given), the Potency was inconclusive: 29.1 µM [falling, single point]. With `O=C(Nc1ccc(Br)c2ccccc12)c1ccc2ccccc2c1O` the Potency was inconclusive: 18.4 µM [falling, single point]. In the case of `CN(C(=O)c1ccc(-c2nn(C)c(=O)c3ccccc23)cc1)C1CCCCC1`, the Potency was inconclusive: 29.1 µM [falling, single point]. In the case of `CCOC(=O)c1c(C)oc2c1c(C=NCc1ccccn1)c(O)c1ccccc12`, the Potency was inconclusive: 29.1 µM [falling, single point]. In the case of `COc1ccc(C(=O)C(C)OC(=O)c2cccc(S(=O)(=O)Nc3cc(Cl)c(OC)cc3OC)c2)cc1` (stereo not given), the Potency was inconclusive: 18.4 µM [falling, single point]. For `CCCc1nc2scc(-c3ccc(C)cc3)c2c(=O)n1N`, the Potency was inconclusive: 13 µM [falling, partial curve, poor fit]. With `Cn1c(=O)c2c(nc(-c3ccccc3)n2C)n(Cc2ccccc2)c1=O` the Potency was inconclusive: 7.31 µM [activator, partial curve, poor fit]. In the case of `Nc1cc(S(=O)(=O)Nc2ccccc2Cl)ccc1N1CCCC1`, the Potency was inconclusive: 20.6 µM [falling, single point]. In the case of `O=C(Nc1nc(-c2ccccn2)cs1)c1ccc(-c2ccccc2F)o1`, the Potency was inconclusive: 29.1 µM [falling, single point]. In the case of `CCCCCn1c(SCC#N)nc2cc(C(=O)NCC3CCCO3)ccc2c1=O` (stereo not given), the Potency was inconclusive: 29.1 µM [falling, single point]. For `COc1ccc(CCNc2cc(N3CCN(C(=O)c4ccccc4OC)CC3)ccc2[N+](=O)[O-])cc1OC`, the Potency was active: 5.8 µM. For `COc1ccc2nc3ccccc3nc2c1NC(=O)c1ccc(Br)cc1`, the Potency was inconclusive: 6.51 µM [activator, single point]. For `N#Cc1ccc(C(=O)Nc2ccccc2-c2nc3ccccc3s2)c(F)c1`, the Potency was “inactive”. With `COCCn1ccc2c(OCC(=O)NCc3ccc(C)cc3)cccc2c1=O` the Potency was “inactive”. With `O=S(=O)(c1cnc2ccccc2c1)N1CCN(c2nc(-c3cccs3)nc3ccccc23)CC1` the Potency was “inactive”.
